The structures given here were assigned with low confidence; some may be wrong.
Biological target: CYP3A4 (Homo sapiens, UniProt P08684)
Assay: In vitro CYP/CYP3A4 inhibition assay (P450-GLO Assay kit, Promega)

Sequences of proteins named here, by UniProt entry; tags and fusion partners are left off.
UniProt P08684, whole entry: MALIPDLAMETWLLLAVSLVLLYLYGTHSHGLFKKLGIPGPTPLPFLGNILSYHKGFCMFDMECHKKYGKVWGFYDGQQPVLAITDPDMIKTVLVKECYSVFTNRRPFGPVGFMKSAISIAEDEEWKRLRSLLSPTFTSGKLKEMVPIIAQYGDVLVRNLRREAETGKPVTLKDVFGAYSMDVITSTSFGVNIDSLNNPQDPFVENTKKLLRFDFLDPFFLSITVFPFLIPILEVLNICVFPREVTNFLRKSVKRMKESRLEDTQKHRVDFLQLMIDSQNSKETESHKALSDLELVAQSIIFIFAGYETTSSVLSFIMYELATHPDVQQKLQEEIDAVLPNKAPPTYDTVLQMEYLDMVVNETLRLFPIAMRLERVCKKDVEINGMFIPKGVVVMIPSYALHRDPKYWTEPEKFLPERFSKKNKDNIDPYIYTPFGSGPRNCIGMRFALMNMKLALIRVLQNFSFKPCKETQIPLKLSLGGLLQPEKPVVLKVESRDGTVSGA

Compound: CCCCc1nc(Cl)c(CO)[nH]1
- Hit / no hit for inhibition of CYP3A4 (human recombinant CYP3A4): no hit (weak/no inhibition (IC50 value>10 μM))
- IC50 (read-out: IC50 (uM), CYP3A4 inhibition, human recombinant CYP3A4): > 10 µM
